Experimental data: publication PMC7181607
These are yes or no findings as the source states them, for the method shown. In cells and extracts the contact can be indirect. Some binding calls cover weakened binding; strength is not graded here. Tags and fused reporters may be left off the sequences shown.

Target: endogenous p53 (human (endogenous in U2OS, A375, HeLa)) (UniProt P04637)
Assay: proximity ligation; Duolink in situ PLA in fixed U2OS cells transfected with IL-1α/EGFP or IL-1αNTP/EGFP; anti-GFP and anti-p53 (CM-1) antibodies; IL-1α/EGFP cells treated with 20 μM roscovitine for 24 hours

B1: IL-1αNTP/EGFP fusion protein (domain or fragment, UniProt P01583 1-112)
chain: MAKVPDMFEDLKNCYSENEEDSSSIDHLSLNQKSFYHVSYGPLHEGCMDQSVSLSISETSKTSKLTFKESMVVVATNGKVLKKRRLSLSQSITDDDLEAIANDSEEEIIKPR
binding: binds
